PubChem BioAssay AID743454, Peter MacCallum Cancer Centre | 2014
Aim: 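Search for knock-downs that restore vorinostat killing in resistant colon cancer cells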 (primary screen). Cell system: human HCT116-VR colon cancer cells, selected for vorinostat resistance. Knock-down reagent: siRNA pool against human genes, 40 nM siRNA pool. Time to read-out: vorinostat for 24 h, read-out about 72 h after transfection. Conditions: vorinostat at 2.5 µM final. Measured: 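Two measures, CellTiter-Fluor viability and luminescent caspase 3/7 activity, each as fold change against same-plate mock wells, mean of duplicates, then screen-wide robust z-score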. Direction: viability robust z-score: higher = more viable cells than screen typical; caspase robust z-score: higher = more caspase 3/7 activity than screen typical. Active means: 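Hits are knock-downs in viability class RV1/RV2 or caspase class CA1/CA2, excluding ones that killed cells in the no-drug cell-count arm; hits then retested with single siRNAs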.
The whole screen tested about 18,000 reagents; below is an unselected part. 450 of them (2.5%) were called active. 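Single biological run; no consistent viability z cut-off exists, so the class columns, not z-scores, define the calls.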 Entries without a mark were called inactive. Reagents against one gene are numbered here.

gene symbol,reagent,viability hit class,caspase hit class,viability robust z-score,caspase robust z-score
NYAP1,1,no change,no change,0.04,-0.86
ATP1B4 (ATPase Na+/K+ transporting family member beta 4),1,no change,no change,-0.05,1.29
SLC25A38,1,no change,no change,1.2,-0.62
FAM53A (family with sequence similarity 53 member A),1,no change,no change,-0.97,1.84
TMEM179B (transmembrane protein 179B),1,no change,no change,0.55,-0.92
LINGO2 (leucine rich repeat and Ig domain containing 2),1,no change,no change,0.95,-0.2
USP13 (ubiquitin specific peptidase 13),1,no change,no change,-0.7,-0.42

Reformatted: results already given
gene symbol | reagent | viability hit class | caspase hit class | viability robust z-score | caspase robust z-score
NYAP1 | 1 | no change | no change | 0.04 | -0.86
ATP1B4 (ATPase Na+/K+ transporting family member beta 4) | 1 | no change | no change | -0.05 | 1.29
SLC25A38 | 1 | no change | no change | 1.2 | -0.62

Further reagents:
gene symbol,reagent,viability hit class,caspase hit class,viability robust z-score,caspase robust z-score
PPIP5K2 (diphosphoinositol pentakisphosphate kinase 2),1,no change,no change,-1.46,1.21
ADAMTS7 (ADAM metallopeptidase with thrombospondin type 1 motif 7),1,no change,no change,-0.62,0.08
GUCA1A (guanylate cyclase activator 1A),1,no change,no change,-0.42,4.18
FAHD1 (FAH domain containing oxaloacetate decarboxylase 1),1,no change,no change,0.57,-1.48
CST7 (cystatin F),1,no change,no change,-0.12,0.02
APCDD1L (APC down-regulated 1 like),1,no change,no change,-0.9,1.21
INSRR (insulin receptor related receptor),1,no change,no change,0.26,-0.46
GFPT2 (glutamine--fructose-6-phosphate transaminase 2),1,no change,no change,1.38,-0.12
"RAB18 (RAB18, member RAS oncogene family)",1,no change,no change,0.84,-0.36
ZNF684 (zinc finger protein 684),1,no change,no change,-1.56,0.93
ARHGAP27 (Rho GTPase activating protein 27),1,no change,no change,1.01,-0.09
ARHGAP27 (Rho GTPase activating protein 27),2,no change,no change,1.68,2.36
MMP28 (matrix metallopeptidase 28),1,no change,no change,0.18,-0.08
GPR171 (G protein-coupled receptor 171),1,no change,no change,0.48,-0.4
H4C9 (H4 clustered histone 9),1,no change,no change,-0.04,-0.28
MRPS35 (mitochondrial ribosomal protein S35),1,no change,no change,-0.09,1.09
